Values from PubChem BioAssay AID686938 (Drosophila RNAi Screening Center, 2013).
Aim: 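Looking for CRAC channel components and the factors controlling them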 (primary screen). Cell system: Drosophila S2R+ cells. Reagent: long dsRNA against Drosophila genes, about 0.25 µg dsRNA per well, roughly 10,000 cells. Duration: 5 days of knock-down before the calcium assay. Conditions: thapsigargin (SERCA pump blocker) to empty calcium stores; entry signal taken 4 min after adding it. Read-out: 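Duplicate raw fluo-4 intensities per well from a plate reader, at rest and four minutes after thapsigargin emptied calcium stores; entry-to-rest ratio filled for only some wells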. Reading the numbers: calcium entry signal: higher = stronger calcium signal after store depletion; resting calcium signal: higher = higher resting calcium signal. Units: calcium entry signal in fluorescence units; resting calcium signal in fluorescence units. Call rule: 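Hit if the duplicate-averaged plate z-score for entry over resting signal is under −3; wells with weak total dye signal (Fmax z < −2) or more than 5 off-targets removed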. Meaning of the calls: active = strongly reduced calcium entry; inactive = no strong reduction.
The deposit covers about 23,000 reagents; shown is an unselected part of those that have a named target and a result. In the full data, 75 (0.33%) are marked active. 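Raw plate signals without normalisation; calls rest on plate z-scores that were not deposited; ratio present for only 364 wells.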 Not stated in the record: the dose of the treatment.

{"target":"Rcd5","amplicon":"DRSC08180","calcium entry signal, replicate 1":4.29e7,"calcium entry signal, replicate 2":3.08e7,"resting calcium signal, replicate 1":3.13e7,"resting calcium signal, replicate 2":1.71e7,"Call":"inactive"}
{"target":"CG13622","amplicon":"DRSC14624","calcium entry signal, replicate 1":3.88e7,"calcium entry signal, replicate 2":4.49e7,"resting calcium signal, replicate 1":2.23e7,"resting calcium signal, replicate 2":1.92e7,"Call":"inactive"}
{"target":"veil","amplicon":"DRSC06892","calcium entry signal, replicate 1":3.00e7,"calcium entry signal, replicate 2":2.52e7,"resting calcium signal, replicate 1":1.53e7,"resting calcium signal, replicate 2":1.25e7,"Call":"inactive"}
{"target":"VhaAC45","amplicon":"DRSC07058","calcium entry signal, replicate 1":2.54e7,"calcium entry signal, replicate 2":2.07e7,"resting calcium signal, replicate 1":1.50e7,"resting calcium signal, replicate 2":1.37e7,"Call":"inactive"}
{"target":"OtopLb","amplicon":"DRSC00594","calcium entry signal, replicate 1":4.58e7,"resting calcium signal, replicate 1":2.85e7,"Call":"inactive"}
{"target":"CAH7","amplicon":"DRSC15524","calcium entry signal, replicate 1":2.53e7,"calcium entry signal, replicate 2":2.18e7,"resting calcium signal, replicate 1":1.35e7,"resting calcium signal, replicate 2":1.22e7,"Call":"inactive"}
{"target":"Rpn10","amplicon":"DRSC11876","calcium entry signal, replicate 1":2.26e7,"calcium entry signal, replicate 2":4.25e7,"resting calcium signal, replicate 1":1.30e7,"resting calcium signal, replicate 2":2.15e7,"Call":"inactive"}
{"target":"CG15651","amplicon":"DRSC04242","calcium entry signal, replicate 1":4.09e7,"calcium entry signal, replicate 2":5.48e7,"resting calcium signal, replicate 1":2.03e7,"resting calcium signal, replicate 2":2.45e7,"Call":"inactive"}
{"target":"CG33704","amplicon":"DRSC03838","calcium entry signal, replicate 1":3.15e7,"calcium entry signal, replicate 2":4.82e7,"resting calcium signal, replicate 1":1.44e7,"resting calcium signal, replicate 2":1.91e7,"Call":"inactive"}
{"target":"Tm1","amplicon":"DRSC13082","calcium entry signal, replicate 1":4.47e7,"calcium entry signal, replicate 2":4.35e7,"resting calcium signal, replicate 1":2.38e7,"resting calcium signal, replicate 2":1.93e7,"Call":"inactive"}
{"target":"Tm1","amplicon":"DRSC13083","calcium entry signal, replicate 1":4.09e7,"calcium entry signal, replicate 2":4.83e7,"resting calcium signal, replicate 1":2.22e7,"resting calcium signal, replicate 2":2.56e7,"Call":"inactive"}
{"target":"Tm1","amplicon":"DRSC16886","calcium entry signal, replicate 1":3.71e7,"calcium entry signal, replicate 2":4.81e7,"resting calcium signal, replicate 1":1.64e7,"resting calcium signal, replicate 2":2.12e7,"Call":"inactive"}
{"target":"Cul2","amplicon":"DRSC03710","calcium entry signal, replicate 1":3.59e7,"resting calcium signal, replicate 1":1.80e7,"Call":"inactive"}
{"target":"CG2604","amplicon":"DRSC12313","calcium entry signal, replicate 1":3.91e7,"calcium entry signal, replicate 2":2.55e7,"resting calcium signal, replicate 1":1.84e7,"resting calcium signal, replicate 2":1.20e7,"Call":"inactive"}

Part of the list above in another layout:
target,amplicon,"calcium entry signal, replicate 1","calcium entry signal, replicate 2","resting calcium signal, replicate 1","resting calcium signal, replicate 2",Call
Tm1,DRSC16886,3.71e7,4.81e7,1.64e7,2.12e7,inactive
Cul2,DRSC03710,3.59e7,,1.80e7,,inactive
